Library screening results

Measurements from “University of Dundee, Small-Polar-MMV Screening Library” (2021), ChEMBL document CHEMBL3988442.

Mtb growth Cornell: 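Whole-cell assay for inhibitors of Mycobacterium tuberculosis growth, labelled Cornell in the record; the read-out is not stated. The concentration is filed as 10 mM, unlikely as a test dose, so the dose is not known. Higher means stronger inhibition (inferred from two other growth screens of the library). Of about 53,000 compounds tested this way, about 900 (1.7%) reached 50% or more in at least one test.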
Mtb heat-shock: 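Assay on Mycobacterium tuberculosis, filed only as a heat shock assay from Cornell; the read-out is not stated. The concentration is filed as 10 mM, unlikely as a test dose, so the dose is not known. Higher reads as stronger inhibition (inferred: compounds with an IC50 in retests scored well above the rest). Size under these conditions: about 69,000 compounds, about 930 of them at 50% or above in at least one test.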

Each number is a percent effect as filed. How 0% and 100% were set is not recorded. Most values in the screen are low, and negative values occur. Compounds were drawn at random from those tested, without regard to their results. A dash means the value is not listed here; it may have been measured.

compound	Mtb growth Cornell	Mtb heat-shock
Cc1nc(C(Cc2ccsc2)NC(=O)CCN2CCOCC2)sc1C (stereo unspecified)	18.41	3.097
CCCOC1Sc2nnc(C)n2N=C1c1ccccc1 (stereo unspecified)	10.44	22.47
COc1ccc(CCN)cc1-c1ccc(S(C)(=O)=O)cc1	5.482	6.416
CN(Cc1cnn(C)c1)C(=O)Cn1c(CS(C)(=O)=O)nc2ccccc21	4.054	10.9
CCCN(C)C(=O)Nc1ccc(C(=O)NCCC(=O)OC)cc1	-3.377	17.03
Cc1cc(C)cc(-c2cccc(CC3(C(=O)O)CCOCC3)c2)c1	26.08	-36.68
CCc1cnc(NCCS(=O)(=O)N(C)C)nc1	-14.11	-9.614
O=C(NCCc1ccn(-c2ccccc2)n1)N1CCSCC1	-	-11.11
CC(C)CCN(CCC(C)C)Cc1nc2c(cnn2C)c(=O)[nH]1	-	15.06
c1cnnc(N2CCCC(NCc3nc(C4CC4)no3)C2)c1 (stereo unspecified)	44.83	9.258
O=C(NCCCn1ccnc1)C1COCC(=O)N1Cc1ccccc1 (stereo unspecified)	-0.3259	14.82
Cn1nnc2c1CCN(Cc1ccco1)C2COCc1ccccc1.O=C(O)C(F)(F)F (stereo unspecified)	-9.406	-16.37
[H][C@]12CCN(C(=O)NCc3ccccc3)C[C@@]1([H])OCCN(CC)C2	-2.344	-4.182
CCCC(C)CS(=O)(=O)NCCc1csc(N2CCCC2)n1 (stereo unspecified)	-	-11.43
O=C(O)C(F)(F)F.[H][C@@]12CN(Cc3ccsc3)CCO[C@]1([H])CN(C(=O)C1CCOCC1)C2	19.94	3.495
Cc1cnn(CCNCc2ccc(OCc3ccccn3)cc2)c1	16.97	-7.483
CN(C)Cc1ccnc(C2CCCN2Cc2cccc(F)c2F)n1 (stereo unspecified)	11.75	-11.46
N#Cc1ccc(CN2CCN(c3cncc(Cl)n3)CC2=O)cc1	16.69	-13.03
Cc1cccc(-c2nc(C)nn2CN2CCN(c3ncccn3)CC2)c1	-	2.55
CNc1cc(N2CCCC2CNCc2cccs2)ncn1 (stereo unspecified)	13.16	-15.69
Cc1noc(C)c1CN1CCOC2(CCCN(c3ccccn3)C2)C1 (stereo unspecified)	15.75	-16.63
CCc1noc(CN(C)CCC(=O)Nc2ccc(Cl)cc2)n1	-1.237	-11.56
O=C(NCc1cccc(-n2cncn2)c1)NCC(C1CC1)C1CC1	-	4.642
Cc1nc2sccn2c1CN(CCCN(C)C)Cc1ccccn1.O=C(O)CC(O)(CC(=O)O)C(=O)O	51.28	-0.915
O=C(NC1CC1)c1cnc2n1CCCC2	-	-101
COc1ccc([C@@H]2CN(c3cnccn3)C[C@H]2N(C)C)cc1	-15.72	13.44
CCOC1COC2(CCN(S(=O)(=O)c3cccc(C)c3)CC2)C1 (stereo unspecified)	24.14	-15.94
CCN(CC)C(=O)[C@@H]1C[C@H](N)CN1c1nnc(-c2ccccc2)s1	3.448	-6.35
COc1ccccc1CN1CC(OC)CN(C(=O)CC(C)C)CC1=O (stereo unspecified)	3.564	-13.24
Cc1ccc(N2CCC(NCc3cnc(C4CCC4)s3)CC2)nc1	-40.95	-46.82
Cc1nn(C)c(C)c1CC(=O)NCc1cccnc1N1CCOCC1	4.103	-3.271
Cc1cccc(CNC(=O)CCc2c(C)nc3cc(O)nn3c2C)n1	-50.8	-12.95
C=Cc1cccc(CN(Cc2cnn(C)c2)C2CC2)c1	14.04	-2.055
CCc1ncc(C(=O)N2CCN(C(=O)COc3ccccc3)CC2)cn1	-35.72	15.61
Cc1ncsc1CN1CCn2c(COCC3CC3)cnc2C1C.O=C(O)C(F)(F)F (stereo unspecified)	-11.07	-8.942
Cc1nc(C2CCCN2CCOCC2CC2)no1 (stereo unspecified)	-13.38	-7.704
NC(=O)C1CCN(CCCNC(=O)Nc2nncs2)CC1	-27.36	-17.75
c1cnn(CCN2CCOC(Cn3cccn3)C2)c1 (stereo unspecified)	-	-7.25
O=C(COc1coc(CN2CCCCC2)cc1=O)Nc1ccccc1Cl	-	0.5714
Cc1ccccc1-c1cncc(C2CCN(Cc3cnn(C)c3)CC2)n1	0.4074	-17.2
COCCCNc1ncc(-c2cccc(F)c2)c(-c2nccn2C)n1	17.79	-1.368
O=C(CSC1CCc2ccccc2NC1=O)NC1CC1 (stereo unspecified)	-0.1015	5.217
CNc1ccc(C)cc1C(=O)N1CCCC2(CCNC2)C1 (stereo unspecified)	-8.132	17.08
COc1cccc(CC(=O)N2CCCSCC2CN2CCCC2)c1 (stereo unspecified)	12.11	5.573
O=C(NCCOC1CCCCC1)c1ccc(-c2ccco2)[nH]c1=O	-	-28.84
O=C(CCNC(=O)C1CCCC1)NCc1cccnc1-n1cncn1	17.22	6.631
CC(NCC1CCN(CCO)CC1)c1cccc(Cl)c1 (stereo unspecified)	33.11	-26.45
CNC(=O)COC(=O)c1ccoc1CN1c2ccccc2CC1C (stereo unspecified)	13.11	-18.77
Cc1nn(C)c2cn(C(C)C(=O)NCc3cccc(F)c3)nc12 (stereo unspecified)	-	0.7116
O=C(NCCOc1ccc(Cl)cn1)NCCc1ccccn1	-24.84	-36.83
Cc1ncsc1C(=O)N1CCCC(c2noc(C(C)C)n2)C1 (stereo unspecified)	15.91	-5.185
c1ccc(Cc2noc(CCNC3CCOC4(CCOCC4)C3)n2)cc1 (stereo unspecified)	0.04699	-27.72
[H][C@]12CC[C@]([H])(CN(C(=O)c3ccccn3)C1)N(C(=O)CCC1CCCC1)C2	10.77	-24.66
CC(C)N1CCC(Cc2cncc(-c3ccccc3C(=O)O)n2)C1 (stereo unspecified)	-45.53	-16.54
COCCOc1cccc(CNCc2ccc(-n3cncn3)nc2)c1	-	5.876
Cc1noc(C(C)N2CCN(CCC(=O)N3CCCCC3)CC2)n1 (stereo unspecified)	1.673	12.06
CC(C)c1nnc2n1CCN(C(=O)CN(C)Cc1ccccc1)C2	0.973	5.876
CCN(CC)c1ccc(CNC(=O)c2ccc(=O)[nH]n2)cn1	-15.44	-3.08
[H][C@@]12COC[C@@H](Cc3nc(C)no3)[C@]1([H])CN(S(=O)(=O)CCC)C2	-24.21	20.2
[H][C@]12CN(CC3CC3)C(=O)[C@@]1([H])CN(S(=O)(=O)C1CC1)C2	15.51	16.82

6 of the entries, repeated:

COc1ccc([C@@H]2CN(c3cnccn3)C[C@H]2N(C)C)cc1 gave Mtb growth Cornell: -15.72%; Mtb heat-shock: 13.44%.
Cc1cc(C)cc(-c2cccc(CC3(C(=O)O)CCOCC3)c2)c1 gave Mtb growth Cornell: 26.08%; Mtb heat-shock: -36.68%.
CNc1cc(N2CCCC2CNCc2cccs2)ncn1 (stereo unspecified) gave Mtb growth Cornell: 13.16%; Mtb heat-shock: -15.69%.
CCOC1COC2(CCN(S(=O)(=O)c3cccc(C)c3)CC2)C1 (stereo unspecified) gave Mtb growth Cornell: 24.14%; Mtb heat-shock: -15.94%.
C=Cc1cccc(CN(Cc2cnn(C)c2)C2CC2)c1 gave Mtb growth Cornell: 14.04%; Mtb heat-shock: -2.055%.
O=C(CSC1CCc2ccccc2NC1=O)NC1CC1 (stereo unspecified) gave Mtb growth Cornell: -0.1015%; Mtb heat-shock: 5.217%.